Counter-ions that a name gives are not always drawn.
Legend:
[1] = test system: IL-6; test: IL-6 ELISA in LPS-treated BV2 microglial cells; assay type: cell-based, mouse; details: BV2, 1 μg/ml LPS, 18 hours; FIG. 4
Description: Briefly, BV2 microglial cells were plated in 96-well plates at 2×10^5 cells/well in DMEM high glucose medium (Welgene, LM001-05) supplemented with 10% fetal bovine serum (FBS; YOUNG IN, US-FBS-500) and 1% penicillin-streptomycin (P-S; Gibco, 15070063).

[2] = test system: ReN VM-immortalized cells, human neural progenitor cell line; test: HB9 motor neuron marker expression in neural progenitor cells (differentiation); assay type: cell-based; details: alone or combined, 3 days
Description: ReN VM-immortalized cells, human neural progenitor cell line, were used (EMD Millipore, SCC008). These neural progenitor cells can differentiate into motor neurons and glial cells. The degree of differentiation of neural progenitor cells into motor neurons was determined by analysing the level of HB9, a specific motor neuron marker. ReN VM cells were cultured on laminin (Corning, 354232)-coated 75T Flask in the growth medium, which is DMEM/F12 (Welgene, #LM002-08) supplemented with 20 ng/ml basic fibroblast growth factor (bFGF; Gibco, 15750-060), 20 ng/ml epidermal growth factor (EGF; Sigma, E9644), serum-free B27 (Gibco, 17504-044), 10 KU heparin (Sigma, H3393), and 1% gentamicin (Gibco, 17504-044). Cells were plated in 96-well plates at 7000 cells/well in the growth media in a 37° C./5% CO2 incubator for 3 days. […] Immunostaining was performed against HB9, a specific motor neuronal marker, to assess the population of motor neurons. Briefly, drug-treated ReN VM cells were fixed in 10% formalin solution for 20 minutes and permeabilized in 0.1% TritonX-100. […] Fluorescence intensity levels were measured using an Odyssey® DLx Infrared Imaging System (LI-COR, CLS-2383). All data were analyzed using the GraphPad Prism 9 software. Statistical significance was assessed using a one-way ANOVA or two-way ANOVA followed by Dunnett's post-hoc analysis unless otherwise noted. […]

[3] = test system: PI3K-AKT pathway; test: pAKT expression in brain (western blot), MCAO-reperfusion model; assay type: in vivo, Sprague-Dawley rats
Description: (§1) At 21 days after 45-minutes-MCAO-reperfusion modeling, brains were collected to perform a western blot assay. Brains were homogenized in lysate buffer with protease inhibitor cocktail on ice. Each sample was centrifuged at 13,000 rpm and 4° C. for 30 minutes and the supernatant was used for further experiments. Protein concentration was measured using DC (Bio-rad, #5000112) protein assay. Samples were loaded using the SDS-PAGE system (Bio-rad, #1658004 and #1645052) and transferred onto nitrocellulose membranes (Bio-rad, #17001917 and #1704272). The membranes were blocked for 1 hour at room temperature with Tris-buffered saline-Tween20 (TBS-T) containing 5% skim milk and then incubated with pAKT antibody (Cell signaling, #4060), AKT primary antibody (Santacruz, SC-81434), EPO primary antibody (SCBT, SC-5290), ERK (CST, #9102), pERK (CST, #9101) and GAPDH (Bioworld, #MBOO1H) in 5% skim milk overnight at 4° C. Next day, the membranes were washed 3 times in TBS-T for 5 minutes, incubated with horseradish peroxidase-conjugated (HRP-conjugated) secondary antibody or fluorescence conjugated secondary antibody for 1-2 hours, and then washed 3 times in TBS-T for 5 minutes again. After final wash, the membranes were developed for chemiluminescence or fluorescence system. The signals of chemiluminescence or fluorescence were acquired and quantified by using ECL solution (Bio-rad, #1705062), iBright 1500 (Invitrogen, #CL1500), and Odyssey CLx (LI-COR, #CLX-2383) imaging system.

[4] = test system: ERK pathway; test: pERK expression in brain (western blot), MCAO-reperfusion model; assay type: in vivo, Sprague-Dawley rats
Description: as §1

[5] = test system: EPO; test: EPO expression in brain (western blot), MCAO-reperfusion model; assay type: in vivo, Sprague-Dawley rats; details: 21 days after MCAO
Description: At 21 days after 45-minutes-MCAO (middle cerebral artery occlusion)-reperfusion modeling, brains were collected to perform the western blot assay. Brains were homogenized in lysate buffer with protease inhibitor cocktail on ice. Each sample was then centrifuged at 13,000 rpm and 4° C. for 30 minutes and the supernatant was used for further experiments. Protein concentration was measured using DC (Bio-rad, #5000112) protein assay. Samples were loaded using the SDS-PAGE system (Bio-rad, #1658004 and #1645052) and transferred onto nitrocellulose membranes (Bio-rad, #17001917 and #1704272). […] Next day, the membranes were washed 3 times in TBS-T for 5 minutes, incubated with horseradish peroxidase-conjugated (HRP-conjugated) secondary antibody or fluorescence conjugated secondary antibody for 1-2 hours, and then washed 3 times in TBS-T for 5 minutes again. After final wash, the membranes were developed for chemiluminescence or fluorescence system. The signals of chemiluminescence or fluorescence were acquired and quantified by using ECL solution (Bio-rad, #1705062), iBright 1500 (Invitrogen, #CL1500), and Odyssey CLx (LI-COR, #CLX-2383) imaging system.

[6] = 1 mpk donepezil HCl or 120 mpk NAC used alone, FIG. 17
[7] = brain, 21 days after MCAO, 1 mpk donepezil HCl, 120 mpk NAC, alone or combined

## COc1cc2c(cc1OC)C(=O)C(CC1CCN(Cc3ccccc3)CC1)C2 (centres unmarked) [Donepezil-HCl, donepezil]
[1]
  IL-6, mean value relative to LPS (100%): 65.12%
[2]; donepezil 0.1 μM, NAC 12 μM, FIG. 9A
  HB9 expression level, mean value relative to CTL (100%): 119.81%
[2]; donepezil 1 μM, NAC 120 μM, FIG. 9B
  HB9 expression level, mean value relative to CTL (100%): 119.25%
[3]; [6]
  activation of the PI3K-AKT pathway: did not activate
[3]; [7]
  pAKT expression normalized to VEH (100%): 388.48%
[3]; brain, 21 days after MCAO, 1 mpk donepezil HCl, 120 mpk NAC, alone or combined, FIG. 17A
  pAKT expression, mean value: 307.50
[4]; [6]
  activation of the ERK pathway: did not activate
[4]; [7]
  pERK expression normalized to VEH (100%): 151.96%
[4]; brain, 21 days after MCAO, 1 mpk donepezil HCl, 120 mpk NAC, alone or combined, FIG. 17B
  pERK expression, mean value: 79.67
[5]
  EPO expression normalized to VEH (100%): 114.38%
[5]; FIG. 18
  EPO expression, mean value: 130.04

Reference: US12728120B2, “Prevention or treatment of brain disease and adverse effects of cholinesterase inhibitors” (DR. NOAH BIOTECH INC., priority 2021, dated 2026)
